This is one part of the list.

Protein sequences, listed by entry. Tags and fused reporters are not part of them.
UniProt Q0JBA9, entry or part of it: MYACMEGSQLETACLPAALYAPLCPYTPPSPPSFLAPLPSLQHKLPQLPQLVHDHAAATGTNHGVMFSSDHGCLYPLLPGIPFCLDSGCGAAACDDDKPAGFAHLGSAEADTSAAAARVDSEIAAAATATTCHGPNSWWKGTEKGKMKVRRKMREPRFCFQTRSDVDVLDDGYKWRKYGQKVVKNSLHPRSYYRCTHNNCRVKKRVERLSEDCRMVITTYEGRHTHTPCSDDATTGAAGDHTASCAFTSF

This test deals with OsWRKY34 (Oryza sativa, UniProt Q0JBA9 1-250). Put plainly: protein-binding microarray (RPBM); PBS, 2% BSA, 51.3 ng/ul salmon testes DNA, 50 uM zinc acetate, 200 nM TF, 25 C, 1 h; high values mean tight binding. The settings on record: protein: recombinant; tags: N-terminal polyhistidine and DsRed monomer fusion (pET32a); label: CyDye5-dUTP incorporated in the synthesized complementary strand; 3' TTTTT single-stranded linker to array surface; dsDNA, one strand shown. The method in brief: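 Binding signal here means per-feature fluorescence intensity in arbitrary units. The values were read on an Axon 4000B scanner after a custom Agilent array, double-stranded by primer extension with Cy5-dUTP, was incubated with 200 nM protein at 25 °C for 1 h in PBS with 2% BSA, salmon testes DNA and 50 µM zinc acetate, then washed. The proteins were transcription factors with an N-terminal polyhistidine tag and DsRed, expressed in E. coli BL21-CodonPlus and purified on Ni–NTA.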
With “AATCTTTTTTTTGTTTTGCTGGTAGTATGTGCTGTCAAATCGGAGTCACCTAGTGCAG”, the binding signal was 8040 fluorescence intensity (a.u.).

With “ATTCAAATTTGTCAAACATTGTTTTCTTCTCTTTCATATCCGGAGTCACCTAGTGCAG”, the binding signal is 8650 fluorescence intensity (a.u.).

As to “CCGCGCGGTGCTCGAGGTGTATGTCTCGTCCCACAACTTCCGGAGTCACCTAGTGCAG”, the binding signal is 9180 fluorescence intensity (a.u.).

As to “GGGAGTCAAAGTAGACTTATTCTTCCCCAATCCATCTCAGCGGAGTCACCTAGTGCAG”, the binding signal was 8330 fluorescence intensity (a.u.).

With “TCCACCACCACCGCTGTACCACCGTGCGTTCCACTCTTCTCGGAGTCACCTAGTGCAG”, the binding signal is 13500 fluorescence intensity (a.u.).

On to “TCTCTTTTTGTAGCTACACTACCAATAACCTATTGTCCTCCGGAGTCACCTAGTGCAG”, for which the binding signal is 9410 fluorescence intensity (a.u.).

As for “AGGGATTTTTTTCTCACTACTTTTTTGCTGGCTTTGACGCCGGAGTCACCTAGTGCAG”, the binding signal is 10500 fluorescence intensity (a.u.).

“TAGTGTTTGCTCTTCATCTAGAATTGTTGTGTTTCTGTACCGGAGTCACCTAGTGCAG”: the binding signal is 8760 fluorescence intensity (a.u.).

Regarding “CACCTCGTTGCTCACGCCTCACCGCACCTCCACATCACCACGGAGTCACCTAGTGCAG”, the binding signal was 9690 fluorescence intensity (a.u.).

As for “GAGGGCGGAGGAGGTGGTGAGGGAGGAGGTGCGGAGGCTGCGGAGTCACCTAGTGCAG”, the binding signal is 8320 fluorescence intensity (a.u.).

For “GTGATGGTGTTTCTCTTTGCAATTCAATTTTGCGTGGCTCCGGAGTCACCTAGTGCAG”, the binding signal was 10600 fluorescence intensity (a.u.).

Turning to “ATCGATCATCAACGGCCCATCGAGCACCTCCGGCCGAGCCCGGAGTCACCTAGTGCAG”, the binding signal is 8350 fluorescence intensity (a.u.).

“CTTGATCAACTTGGCTACATCCGTCCCTTATCCAGCTAAACGGAGTCACCTAGTGCAG”: the binding signal is 10100 fluorescence intensity (a.u.).

Consider “GTTGCAGGTTCTTCAGTCCACTTGGGATGGTTCCGGTGGTCGGAGTCACCTAGTGCAG”, for which the binding signal was 10700 fluorescence intensity (a.u.).

For “CACCACGGCTTCCACACAGCCCGCCAAACCGGCATGCACTCGGAGTCACCTAGTGCAG”, the binding signal was 10400 fluorescence intensity (a.u.).

As for “CCCCTTCGCCGTCGTCTTATGCGCTTCCCACGGGGCCGCACGGAGTCACCTAGTGCAG”, the binding signal is 9810 fluorescence intensity (a.u.).

Take “AACCGCGACCACCTCTGCTTCTCCCCTTCTCTCTCCTCCCCGGAGTCACCTAGTGCAG”: the binding signal is 8030 fluorescence intensity (a.u.).

“GGGAGCGGGTGGGAGTGGCCGGCGCGGAGGACGACGGCGGCGGAGTCACCTAGTGCAG”: the binding signal was 8280 fluorescence intensity (a.u.).

Consider “AGACTCTTGTTTGCTTCATTCCTATCCAGTTTCATCCAACCGGAGTCACCTAGTGCAG”, for which the binding signal was 8530 fluorescence intensity (a.u.).

Turning to “ATTCCCAGCCGCCTCTCTTCTTGTTAGGGGATCCGAAATCCGGAGTCACCTAGTGCAG”, the binding signal was 11700 fluorescence intensity (a.u.).

Regarding “TGTTCTCATTGCCGCCTCCTTTGTTTGCACACACCCCAACCGGAGTCACCTAGTGCAG”, the binding signal is 13500 fluorescence intensity (a.u.).

Consider “CCACCTATCTGGCCTGGCTCACTCTTTCTCCGTTTATTTTCGGAGTCACCTAGTGCAG”, for which the binding signal is 13900 fluorescence intensity (a.u.).

As to “CAACCTTCATGACCTGCATAACAGCCTGATTGCTTCTAAACGGAGTCACCTAGTGCAG”, the binding signal is 13000 fluorescence intensity (a.u.).

With “TGCTTCTCCTCACCCGTGCTCGCTTGCCTCGCTCTGCGTTCGGAGTCACCTAGTGCAG”, the binding signal was 8620 fluorescence intensity (a.u.).

On to “CCAAGACCGCACCCGTATAAAGCCGCAGACCTCTCTCTCCCGGAGTCACCTAGTGCAG”, for which the binding signal is 10100 fluorescence intensity (a.u.).

Turning to “GAGTTCTTCAGTTCATCTATTGCTCACCTTAGCAACCATCCGGAGTCACCTAGTGCAG”, the binding signal is 8450 fluorescence intensity (a.u.).

Regarding “GCATCCAACCGCCCATGGAAATCCCCGCGCGCCCTCCCAGCGGAGTCACCTAGTGCAG”, the binding signal is 12000 fluorescence intensity (a.u.).

As for “GGAGAGGAGGCGGAGGTGAAGGGGAAGGGGCAGGGGAGGACGGAGTCACCTAGTGCAG”, the binding signal was 11400 fluorescence intensity (a.u.).

For the sequence “TCGTCTTCACGCGGACATTGTAGTCCCACTCGAGCTTCTCCGGAGTCACCTAGTGCAG”, the binding signal was 8060 fluorescence intensity (a.u.).

Take “ATCATCGCTCGCAGTCGCAGCACAAAAACATTTCTCTCGCCGGAGTCACCTAGTGCAG”: the binding signal was 8920 fluorescence intensity (a.u.).

Turning to “CCATCTCCTACACGACTTTTGTTTCATCATCTATTCTCCTCGGAGTCACCTAGTGCAG”, the binding signal was 15900 fluorescence intensity (a.u.).

Consider “AGAGAACCGTCCATTCATCTATTGATCATTGTATCATTCCCGGAGTCACCTAGTGCAG”, for which the binding signal was 9140 fluorescence intensity (a.u.).

“TGTTAGCTCCTCACCGTCACCGGTGTGCCTCGCGTCGTTCCGGAGTCACCTAGTGCAG”: the binding signal was 8670 fluorescence intensity (a.u.).

In the case of “CGCCTGCTCCAGATCCGGTCATCGTCGTCTCGGTCGTCGTCGGAGTCACCTAGTGCAG”, the binding signal was 8050 fluorescence intensity (a.u.).

With “CTCACCACAAGGCCACATGTCATCGCTATTTTTTGCCTCGCGGAGTCACCTAGTGCAG”, the binding signal was 9000 fluorescence intensity (a.u.).

Take “TGGAAAGAGGAGGGCGGGGAGAGGACTGGGGAGGGCGGGGCGGAGTCACCTAGTGCAG”: the binding signal is 17700 fluorescence intensity (a.u.).

Regarding “ATCACTGATCTATTTAATTCTGCAGGTACCGCTTCATGCTCGGAGTCACCTAGTGCAG”, the binding signal is 8630 fluorescence intensity (a.u.).

For the sequence “CTCTCGTTCAAACGTTCGTCTGTTCAAACGTCAACCTTTCCGGAGTCACCTAGTGCAG”, the binding signal was 10500 fluorescence intensity (a.u.).

Turning to “TGGCGCGTGGGAGGGTCAGCCTAGGGCGTCGGAGGGGCGGCGGAGTCACCTAGTGCAG”, the binding signal was 13400 fluorescence intensity (a.u.).

Take “ACAAAGGGTCAAACGTTGGTAAAAAGTCAACGGTGTCGTTCGGAGTCACCTAGTGCAG”: the binding signal was 14200 fluorescence intensity (a.u.).

Take “TTGACTTTTGATTATTCTTCTCGTTGCAAATATAAACTGCCGGAGTCACCTAGTGCAG”: the binding signal is 9080 fluorescence intensity (a.u.).

In the case of “GCCGACTCCGCCGATATCTCCGCCGCCTGCGCAACCACACCGGAGTCACCTAGTGCAG”, the binding signal is 9290 fluorescence intensity (a.u.).

Values taken from paper PMC7819943, “Rice protein-binding microarrays: a tool to detect cis-acting elements near promoter regions in rice”.
